This data set in a line: in vitro. To be noted: PAMPA, pH 7.4.

We go through 2 compounds from paper PMC7880572 (ACS Chemical Neuroscience, 2021).

A word on the Papp: it is the rate of passage across a membrane or cell layer, normalised by area and donor concentration. Read a high Papp as fast passage.

Turning to `CC(C)NCC(O)COc1ccc(CC(N)=O)cc1` (centres unmarked) [Atenolol], the Papp at 16 h was determined as 0.88 ×10⁻⁶ cm/s. Compound `CN1C(=O)CN=C(c2ccccc2)c2cc(Cl)ccc21` [Diazepam] yielded a Papp of 13.1 ×10⁻⁶ cm/s.
